# The other results are listed elsewhere or left out.
# Key:
# Experiment in all cases: glycan array binding signal (z-score within array); higher = stronger binding
# Settings in all cases: glycan notation: IUPAC condensed, linker removed
# Neu5Ac(a2-3)Gal(b1-4)Glc = biological target: Neu5Ac(a2-3)Gal(b1-4)Glc
# How it was run: (§1)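 The Consortium for Functional Glycomics database supplied 3228 glycan arrays, of which those lacking an available protein sequence were dropped. The binding signal, a within-array Z-score, was averaged across arrays of the same protein sequence and across linkers. Negative scores can be read as non-binding.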
# [1] = biological target: Neu5Ac(a2-3)Gal(b1-4)GlcNAc
# How it was run: as §1
# [2] = biological target: Neu5Ac(a2-3)Gal(b1-4)GlcNAc(b1-2)Man
# How it was run: as §1
# [3] = biological target: Neu5Ac(a2-3)Gal(b1-4)GlcNAc(b1-2)Man(a1-3)[GlcNAc(b1-4)][Neu5Ac(a2-3)Gal(b1-4)GlcNAc(b1-2)Man(a1-6)]Man(b1-4)GlcNAc(b1-4)GlcNAc
# How it was run: as §1
# [4] = biological target: Neu5Ac(a2-3)Gal(b1-4)GlcNAc(b1-2)Man(a1-3)[Neu5Ac(a2-3)Gal(b1-4)GlcNAc(b1-2)Man(a1-6)]Man(b1-4)GlcNAc(b1-4)GlcNAc
# How it was run: as §1
# [5] = biological target: Neu5Ac(a2-3)Gal(b1-4)GlcNAc(b1-2)Man(a1-3)[Neu5Ac(a2-3)Gal(b1-4)GlcNAc(b1-2)Man(a1-6)]Man(b1-4)GlcNAc(b1-4)[Fuc(a1-6)]GlcNAc
# How it was run: as §1
# [6] = biological target: Neu5Ac(a2-3)Gal(b1-4)GlcNAc(b1-2)Man(a1-3)[Neu5Ac(a2-6)Gal(b1-4)GlcNAc(b1-2)Man(a1-6)]Man(b1-4)GlcNAc(b1-4)GlcNAc
# How it was run: as §1
# [7] = biological target: Neu5Ac(a2-3)Gal(b1-4)GlcNAc(b1-2)[Neu5Ac(a2-3)Gal(b1-4)GlcNAc(b1-4)]Man(a1-3)[GlcNAc(b1-4)][Neu5Ac(a2-3)Gal(b1-4)GlcNAc(b1-2)[Neu5Ac(a2-3)Gal(b1-4)GlcNAc(b1-6)]Man(a1-6)]Man(b1-4)GlcNAc(b1-4)GlcNAc
# How it was run: as §1
# [8] = biological target: Neu5Ac(a2-3)Gal(b1-4)GlcNAc(b1-2)[Neu5Ac(a2-3)Gal(b1-4)GlcNAc(b1-4)]Man(a1-3)[GlcNAc(b1-4)][Neu5Ac(a2-3)Gal(b1-4)GlcNAc(b1-4)Man(a1-6)]Man(b1-4)GlcNAc(b1-4)GlcNAc
# How it was run: as §1
# [9] = biological target: Neu5Ac(a2-3)Gal(b1-4)GlcNAc(b1-2)[Neu5Ac(a2-3)Gal(b1-4)GlcNAc(b1-6)]Man(a1-6)[Neu5Ac(a2-3)Gal(b1-4)GlcNAc(b1-2)Man(a1-3)]Man(b1-4)GlcNAc(b1-4)GlcNAc
# How it was run: as §1
# [10] = biological target: Neu5Ac(a2-3)Gal(b1-4)GlcNAc(b1-2)[Neu5Ac(a2-3)Gal(b1-4)GlcNAc(b1-6)]Man(a1-6)[Neu5Ac(a2-3)Gal(b1-4)GlcNAc(b1-2)Man(a1-3)][GlcNAc(b1-4)]Man(b1-4)GlcNAc(b1-4)GlcNAc
# How it was run: as §1
# [11] = biological target: Neu5Ac(a2-3)Gal(b1-4)GlcNAc(b1-3)Gal
# How it was run: as §1
# [12] = biological target: Neu5Ac(a2-3)Gal(b1-4)GlcNAc(b1-3)Gal(b1-3)GlcNAc
# How it was run: as §1
# [13] = biological target: Neu5Ac(a2-3)Gal(b1-4)GlcNAc(b1-3)Gal(b1-4)GlcNAc
# How it was run: as §1
# [14] = biological target: Neu5Ac(a2-3)Gal(b1-4)GlcNAc(b1-3)Gal(b1-4)GlcNAc(b1-2)Man(a1-3)[Neu5Ac(a2-3)Gal(b1-4)GlcNAc(b1-3)Gal(b1-4)GlcNAc(b1-2)Man(a1-6)]Man(b1-4)GlcNAc(b1-4)GlcNAc
# How it was run: as §1
# [15] = biological target: Neu5Ac(a2-3)Gal(b1-4)GlcNAc(b1-3)Gal(b1-4)GlcNAc(b1-3)Gal(b1-4)GlcNAc
# How it was run: as §1
# [16] = biological target: Neu5Ac(a2-3)Gal(b1-4)GlcNAc(b1-3)Gal(b1-4)GlcNAc(b1-3)Gal(b1-4)GlcNAc(b1-2)Man(a1-3)[Neu5Ac(a2-3)Gal(b1-4)GlcNAc(b1-3)Gal(b1-4)GlcNAc(b1-3)Gal(b1-4)GlcNAc(b1-2)Man(a1-6)]GalNAc
# How it was run: as §1
# [17] = biological target: Neu5Ac(a2-3)Gal(b1-4)GlcNAc(b1-3)Gal(b1-4)GlcNAc(b1-3)GalNAc
# How it was run: as §1
# [18] = biological target: Neu5Ac(a2-3)Gal(b1-4)GlcNAc(b1-3)Gal(b1-4)GlcNAc(b1-3)[Neu5Ac(a2-3)Gal(b1-4)GlcNAc(b1-3)Gal(b1-4)GlcNAc(b1-6)]GalNAc
# How it was run: as §1
# [19] = biological target: Neu5Ac(a2-3)Gal(b1-4)GlcNAc(b1-3)Gal(b1-4)GlcNAc(b1-6)[Gal(b1-3)]GalNAc
# How it was run: as §1
# [20] = biological target: Neu5Ac(a2-3)Gal(b1-4)GlcNAc(b1-3)Gal(b1-4)[Fuc(a1-3)]GlcNAc
# How it was run: as §1
# [21] = biological target: Neu5Ac(a2-3)Gal(b1-4)GlcNAc(b1-3)GalNAc
# How it was run: as §1
# [22] = biological target: Neu5Ac(a2-3)Gal(b1-4)GlcNAc(b1-3)[Neu5Ac(a2-3)Gal(b1-4)GlcNAc(b1-6)]GalNAc
# How it was run: as §1
# [23] = biological target: Neu5Ac(a2-3)Gal(b1-4)GlcNAc(b1-6)GalNAc
# How it was run: as §1
# [24] = biological target: Neu5Ac(a2-3)Gal(b1-4)GlcNAc(b1-6)[Gal(b1-3)]GalNAc
# How it was run: as §1
# [25] = biological target: Neu5Ac(a2-3)Gal(b1-4)GlcNAc(b1-6)[Neu5Ac(a2-3)Gal(b1-3)]GalNAc
# How it was run: as §1
# [26] = biological target: Neu5Ac(a2-3)Gal(b1-4)GlcNAc6S
# How it was run: as §1
# [27] = biological target: Neu5Ac(a2-3)Gal(b1-4)[Fuc(a1-3)]GlcNAc
# How it was run: as §1
# [28] = biological target: Neu5Ac(a2-3)Gal(b1-4)[Fuc(a1-3)]GlcNAc(b1-2)Man
# How it was run: as §1
# [29] = biological target: Neu5Ac(a2-3)Gal(b1-4)[Fuc(a1-3)]GlcNAc(b1-3)Gal
# How it was run: as §1
# [30] = biological target: Neu5Ac(a2-3)Gal(b1-4)[Fuc(a1-3)]GlcNAc(b1-3)Gal(b1-4)GlcNAc
# How it was run: as §1
# [31] = biological target: Neu5Ac(a2-3)Gal(b1-4)[Fuc(a1-3)]GlcNAc(b1-3)Gal(b1-4)[Fuc(a1-3)]GlcNAc(b1-3)Gal(b1-4)[Fuc(a1-3)]GlcNAc
# How it was run: as §1
# [32] = biological target: Neu5Ac(a2-3)Gal(b1-4)[Fuc(a1-3)]GlcNAc(b1-3)GalNAc
# How it was run: as §1
# [33] = biological target: Neu5Ac(a2-3)Gal(b1-4)[Fuc(a1-3)]GlcNAc(b1-6)[Gal(b1-3)]GalNAc
# How it was run: as §1
# [34] = biological target: Neu5Ac(a2-3)Gal(b1-4)[Fuc(a1-3)]GlcNAc(b1-6)[Neu5Ac(a2-3)Gal(b1-3)]GalNAc
# How it was run: as §1
# [35] = biological target: Neu5Ac(a2-3)Gal(b1-4)[Fuc(a1-3)]GlcNAc6S
# How it was run: as §1
# [36] = biological target: Neu5Ac(a2-3)Gal6S(b1-4)GlcNAc
# How it was run: as §1
# [37] = biological target: Neu5Ac(a2-3)Gal6S(b1-4)[Fuc(a1-3)]GlcNAc
# How it was run: as §1
binder,measurement,setting,value
"Clec18Av1 (Homo sapiens), A5D8T8 (protein) MLHPETSPGRGHLLAVLLALLGTAWAEVWPPQLQEQAPMAGALNRKESFLLLSLHNRLRSWVQPPAADMRRLDWSDSLAQLAQARAALCGTPTPSLASGLWRTLQVGWNMQLLPAGLVSFVEVVSLWFAEGQRYSHAAGECARNATCTHYTQLVWATSSQLGCGRHLCSAGQAAIEAFVCAYSPRGNWEVNGKTIVPYKKGAWCSLCTASVSGCFKAWDHAGGLCEVPRNPCRMSCQNHGRLNISTCHCHCPPGYTGRYCQVRCSLQCVHGRFREEECSCVCDIGYGGAQCATKVHFPFHTCDLRIDGDCFMVSSEADTYYRARMKCQRKGGVLAQIKSQKVQDILAFYLGRLETTNEVIDSDFETRNFWIGLTYKTAKDSFRWATGEHQAFTSFAFGQPDNHGFGNCVELQASAAFNWNDQRCKTRNRYICQFAQEHISRWGPGS",glycan array binding signal (z-score),Neu5Ac(a2-3)Gal(b1-4)Glc,-0.053
same,glycan array binding signal (z-score),[1],-0.844
same,glycan array binding signal (z-score),[2],0.838
same,glycan array binding signal (z-score),[3],-0.847
same,glycan array binding signal (z-score),[4],1.12
same,glycan array binding signal (z-score),[5],-0.84
same,glycan array binding signal (z-score),[6],1.84
same,glycan array binding signal (z-score),[7],-0.868
same,glycan array binding signal (z-score),[8],-0.8
same,glycan array binding signal (z-score),[9],0.446
same,glycan array binding signal (z-score),[10],-0.864
same,glycan array binding signal (z-score),[11],-0.867
same,glycan array binding signal (z-score),[12],-0.761
same,glycan array binding signal (z-score),[13],-0.802
same,glycan array binding signal (z-score),[14],-0.163
same,glycan array binding signal (z-score),[15],-0.814
same,glycan array binding signal (z-score),[16],0.256
same,glycan array binding signal (z-score),[17],-0.871
same,glycan array binding signal (z-score),[18],-0.55
same,glycan array binding signal (z-score),[19],0.766
same,glycan array binding signal (z-score),[20],-0.864
same,glycan array binding signal (z-score),[21],-0.884
same,glycan array binding signal (z-score),[22],-0.861
same,glycan array binding signal (z-score),[23],1.49
same,glycan array binding signal (z-score),[24],1.45
same,glycan array binding signal (z-score),[25],-0.857
same,glycan array binding signal (z-score),[26],-0.509
same,glycan array binding signal (z-score),[27],-0.677
same,glycan array binding signal (z-score),[28],-0.846
same,glycan array binding signal (z-score),[29],-0.84
same,glycan array binding signal (z-score),[30],0.154
same,glycan array binding signal (z-score),[31],-0.719
same,glycan array binding signal (z-score),[32],0.088
same,glycan array binding signal (z-score),[33],0.892
same,glycan array binding signal (z-score),[34],0.921
same,glycan array binding signal (z-score),[35],-0.818
same,glycan array binding signal (z-score),[36],-0.585
same,glycan array binding signal (z-score),[37],-0.832
